# Reference: PubChem BioAssay (EPA / NIEHS)
# Chains of the proteins cited; added tags and fusions are not shown. Lines headed by an entry give the natural chain unless they say otherwise; changes in a name come on top.
# UniProt P37231: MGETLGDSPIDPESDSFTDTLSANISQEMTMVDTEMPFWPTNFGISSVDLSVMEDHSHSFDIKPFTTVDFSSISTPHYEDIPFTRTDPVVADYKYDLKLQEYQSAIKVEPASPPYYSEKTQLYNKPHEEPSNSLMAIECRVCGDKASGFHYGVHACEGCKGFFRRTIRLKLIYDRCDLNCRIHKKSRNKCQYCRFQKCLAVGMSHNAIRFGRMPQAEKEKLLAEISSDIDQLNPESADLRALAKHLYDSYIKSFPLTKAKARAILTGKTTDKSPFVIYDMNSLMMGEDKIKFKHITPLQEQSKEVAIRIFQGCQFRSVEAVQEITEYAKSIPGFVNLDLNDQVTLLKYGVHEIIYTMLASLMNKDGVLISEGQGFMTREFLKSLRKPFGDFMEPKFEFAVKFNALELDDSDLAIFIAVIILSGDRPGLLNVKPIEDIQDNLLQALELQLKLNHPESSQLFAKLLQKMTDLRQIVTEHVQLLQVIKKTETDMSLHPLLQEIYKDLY
# UniProt O75469: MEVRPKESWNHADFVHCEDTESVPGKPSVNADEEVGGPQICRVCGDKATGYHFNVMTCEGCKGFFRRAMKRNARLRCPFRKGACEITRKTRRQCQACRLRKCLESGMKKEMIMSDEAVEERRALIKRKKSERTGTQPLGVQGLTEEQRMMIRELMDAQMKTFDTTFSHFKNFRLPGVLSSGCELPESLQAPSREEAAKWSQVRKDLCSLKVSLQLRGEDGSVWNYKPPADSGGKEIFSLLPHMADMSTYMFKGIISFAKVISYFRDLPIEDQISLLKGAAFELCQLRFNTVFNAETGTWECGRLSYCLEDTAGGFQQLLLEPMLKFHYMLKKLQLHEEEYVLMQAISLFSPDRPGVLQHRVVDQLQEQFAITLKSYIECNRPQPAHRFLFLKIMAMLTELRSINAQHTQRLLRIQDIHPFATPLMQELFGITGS
# UniProt Q96RI1: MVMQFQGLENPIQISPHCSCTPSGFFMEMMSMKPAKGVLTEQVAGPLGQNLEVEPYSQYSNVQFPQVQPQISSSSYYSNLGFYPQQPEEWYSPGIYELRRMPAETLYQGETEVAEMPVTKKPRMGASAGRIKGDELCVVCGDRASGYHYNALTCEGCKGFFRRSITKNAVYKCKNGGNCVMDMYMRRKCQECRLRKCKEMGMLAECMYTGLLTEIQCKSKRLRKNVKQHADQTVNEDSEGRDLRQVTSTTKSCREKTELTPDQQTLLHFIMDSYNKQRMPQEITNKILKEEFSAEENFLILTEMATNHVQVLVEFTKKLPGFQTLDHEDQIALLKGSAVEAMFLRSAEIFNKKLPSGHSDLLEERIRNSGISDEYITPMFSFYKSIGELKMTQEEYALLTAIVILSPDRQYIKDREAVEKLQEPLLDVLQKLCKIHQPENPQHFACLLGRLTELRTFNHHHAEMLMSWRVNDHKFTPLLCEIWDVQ
# UniProt Q60492, whole entry, looked up: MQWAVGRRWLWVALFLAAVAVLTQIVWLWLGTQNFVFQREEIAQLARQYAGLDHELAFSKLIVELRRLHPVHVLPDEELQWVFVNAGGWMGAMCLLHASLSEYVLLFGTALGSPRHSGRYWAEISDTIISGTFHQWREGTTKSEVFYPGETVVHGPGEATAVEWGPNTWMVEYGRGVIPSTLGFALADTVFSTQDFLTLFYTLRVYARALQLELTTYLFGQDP
# UniProt P15207: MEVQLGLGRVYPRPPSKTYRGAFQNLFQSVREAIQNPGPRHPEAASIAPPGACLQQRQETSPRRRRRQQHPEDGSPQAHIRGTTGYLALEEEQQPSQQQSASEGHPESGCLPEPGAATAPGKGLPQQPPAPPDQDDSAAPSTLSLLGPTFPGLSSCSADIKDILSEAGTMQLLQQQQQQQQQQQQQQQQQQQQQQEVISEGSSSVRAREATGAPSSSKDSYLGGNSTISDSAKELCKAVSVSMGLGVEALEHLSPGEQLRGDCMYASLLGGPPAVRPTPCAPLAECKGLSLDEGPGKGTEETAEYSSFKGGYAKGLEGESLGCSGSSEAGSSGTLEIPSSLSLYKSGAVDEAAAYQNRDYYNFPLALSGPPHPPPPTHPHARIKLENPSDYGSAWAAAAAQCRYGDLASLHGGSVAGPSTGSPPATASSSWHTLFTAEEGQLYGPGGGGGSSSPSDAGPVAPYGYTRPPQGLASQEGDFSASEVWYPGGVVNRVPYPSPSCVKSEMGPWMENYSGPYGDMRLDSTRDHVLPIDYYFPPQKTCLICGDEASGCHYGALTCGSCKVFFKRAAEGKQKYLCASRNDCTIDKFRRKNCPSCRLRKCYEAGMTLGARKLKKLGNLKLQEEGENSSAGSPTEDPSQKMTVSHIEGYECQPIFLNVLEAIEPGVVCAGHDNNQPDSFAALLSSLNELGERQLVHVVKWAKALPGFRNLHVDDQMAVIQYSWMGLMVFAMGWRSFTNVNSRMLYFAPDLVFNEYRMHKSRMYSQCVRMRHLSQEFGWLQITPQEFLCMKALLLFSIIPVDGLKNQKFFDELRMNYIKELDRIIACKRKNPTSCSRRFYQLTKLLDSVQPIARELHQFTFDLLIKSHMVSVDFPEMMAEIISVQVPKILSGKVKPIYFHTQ
# UniProt P31645, whole entry, looked up: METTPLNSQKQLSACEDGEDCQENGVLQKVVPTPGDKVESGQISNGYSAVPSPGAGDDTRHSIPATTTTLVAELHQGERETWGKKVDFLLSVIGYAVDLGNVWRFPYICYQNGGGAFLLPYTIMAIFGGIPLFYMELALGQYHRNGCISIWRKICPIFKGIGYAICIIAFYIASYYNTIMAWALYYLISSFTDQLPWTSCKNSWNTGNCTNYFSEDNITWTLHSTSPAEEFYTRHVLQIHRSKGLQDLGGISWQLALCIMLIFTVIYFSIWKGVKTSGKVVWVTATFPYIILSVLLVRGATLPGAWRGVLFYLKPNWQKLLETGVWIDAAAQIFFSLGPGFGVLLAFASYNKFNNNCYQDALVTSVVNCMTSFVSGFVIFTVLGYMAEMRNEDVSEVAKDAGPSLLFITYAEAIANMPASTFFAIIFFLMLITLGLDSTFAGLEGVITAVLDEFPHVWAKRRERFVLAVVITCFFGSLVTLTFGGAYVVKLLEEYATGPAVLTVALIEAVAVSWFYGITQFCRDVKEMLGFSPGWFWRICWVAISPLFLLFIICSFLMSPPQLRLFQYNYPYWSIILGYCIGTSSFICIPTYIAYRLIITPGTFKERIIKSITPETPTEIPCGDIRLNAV
# UniProt P19785, whole entry, looked up: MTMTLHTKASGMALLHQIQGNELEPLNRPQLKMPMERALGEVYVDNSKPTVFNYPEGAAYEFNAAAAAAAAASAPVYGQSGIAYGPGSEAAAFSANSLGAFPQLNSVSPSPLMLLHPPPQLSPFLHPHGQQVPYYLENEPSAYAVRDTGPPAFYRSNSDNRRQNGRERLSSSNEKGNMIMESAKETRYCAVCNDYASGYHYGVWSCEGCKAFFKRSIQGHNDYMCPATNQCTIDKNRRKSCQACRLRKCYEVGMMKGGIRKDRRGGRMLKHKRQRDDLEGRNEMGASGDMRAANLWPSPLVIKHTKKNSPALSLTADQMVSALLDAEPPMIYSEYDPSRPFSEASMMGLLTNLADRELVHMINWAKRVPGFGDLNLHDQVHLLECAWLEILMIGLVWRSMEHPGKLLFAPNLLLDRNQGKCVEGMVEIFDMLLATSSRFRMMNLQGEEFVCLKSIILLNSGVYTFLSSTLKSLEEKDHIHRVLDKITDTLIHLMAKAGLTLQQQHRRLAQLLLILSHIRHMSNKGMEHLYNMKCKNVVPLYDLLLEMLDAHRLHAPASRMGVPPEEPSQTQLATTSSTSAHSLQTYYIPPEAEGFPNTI
# The inconclusive results got no clear call from the source; some entries with a clear call stand among them for comparison. For part of these data: Where the call is inconclusive, the potency comes from a doubtful curve fit. Active and inactive are the calls of the source. How the source made its calls: active means hit-call score of the fitted dose curve at least 0.9, where 1 is the maximum; inconclusive means response in the unintended direction; inactive means score below 0.9.
# Key:
# [1] = target: Peroxisome proliferator-activated receptor gamma (Homo sapiens) (UniProt P37231); experiment: NVS_NR_hPPARg: NovaScreen (NVS) Nuclear Receptor Binding Assay for human Peroxisome Proliferator-activated Receptor gamma (PPARg) (AID 2283370)
# In short: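 Extracted receptor protein, cell-free; compound incubated 2 h then fluorescence polarization read. Baseline: DMSO. Actives from 25 uM duplicate screen re-run across concentrations.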
# [2] = target: Nuclear receptor subfamily 1 group I member 2 (Homo sapiens) (UniProt O75469); experiment: NVS_NR_hPXR: NovaScreen (NVS) Nuclear Receptor Binding Assay for human Pregnane X Receptor (PXR) (AID 2283365);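 further: a drop in FRET signal versus DMSO baseline means the compound binds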
# In short: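 Read-out: TR-FRET, human PXR, 2 h post-dosing, cell-free. Loss of signal vs DMSO taken as binding activity; 25 uM primary, concentration series secondary.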
# [3] = target: Bile acid receptor (Homo sapiens) (UniProt Q96RI1); experiment: OT_FXR_FXRSRC1_0480: Odyssey Thera (OT) 8-hour HEK293T Protein-Complementation Assay for Farnesoid X receptor/SRC-1 Co-activator (AID 2283383)
# In short: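 Fluorescence intensity read-out, 8 h post-dose, HEK293T protein-fragment complementation; FXR bait and SRC-1 prey each linked to reporter fragments. Activity scored as signal increase over DMSO negative control.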
# [4] = target: Bile acid receptor (Homo sapiens) (UniProt Q96RI1); experiment: OT_FXR_FXRSRC1_1440: Odyssey Thera (OT) 24-hour HEK293T Protein-Complementation Assay for Farnesoid X receptor/SRC-1 Co-activator (AID 2283384)
# In short: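 Fluorescence readout, 24 h post-dose, HEK293T; FXR and SRC-1 fused to complementary reporter fragments, association reconstitutes signal. Positive-direction fit vs DMSO baseline.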
# [5] = target: guinea pig Sigma Receptor, Non-selective Binding, SIGMAR1 (gene 100135589) (UniProt Q60492); experiment: NVS_OR_gSIGMA_NonSelective: NovaScreen (NVS) Nuclear Receptor Binding Assay for guinea pig Sigma Receptor, Non-selective Binding (AID 2283367)
# In short: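 Guinea pig brain membrane sigma sites were labelled with a radioligand, and bound radioactivity was counted after filtration 1 h post-dose. Compounds were screened at 25 uM in duplicate, then retested as concentration series when active.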
# [6] = system: guinea pig Dopamine Transporter (DAT), gene 100714898; experiment: NVS_TR_gDAT: NovaScreen (NVS) Transporter Assay for guinea pig Dopamine Transporter (DAT) (AID 2283369);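 further: active compounds lower bound radioligand signal relative to DMSO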
# In short: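 Primary pass: duplicate wells at 25 uM, threshold e.g. 30% inhibition. Follow-up: singleton concentration-response, highest 50 uM. Radioligand binding on guinea pig striatal membranes, 2 h, filtration scintillation detection.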
# [7] = target: rat Androgen Receptor (AR), Ar (gene 24208) (UniProt P15207); experiment: NVS_NR_rAR: NovaScreen (NVS) Nuclear Receptor Binding Assay for rat Androgen Receptor (AR) (AID 2283366)
# In short: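 Actives from a duplicate single-concentration (25 uM) primary run went on to concentration series. Displacement of radioligand was counted by filtration and scintillation, 18 h post-dose, using prostate extracts from testosterone-pretreated rats, with DMSO as baseline.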
# [8] = target: human Serotonin Transporter (SERT), SLC6A4 (gene 6532) (UniProt P31645); experiment: NVS_TR_hSERT: NovaScreen (NVS) Transporter Assay for human Serotonin Transporter (SERT) (AID 2283372)
# In short: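 Human platelet membrane preparation; displacement of radioligand from serotonin transporter measured after 1 h by filtration and scintillation counting. Single 25 uM duplicate screen, then concentration series for actives, with DMSO as negative baseline.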
# [9] = target: mouse Estrogen Receptor alpha (Era), Esr1 (gene 13982) (UniProt P19785); experiment: NVS_NR_mERa: NovaScreen (NVS) Nuclear Receptor Binding Assay for mouse Estrogen Receptor alpha (Era) (AID 2283378);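 further: hit means loss of bound radioligand signal relative to DMSO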
# In short: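 Measurements come from scintillation counting after filtration, taken 18 hours after chemicals were added to a cell-free mouse Era preparation with radioligand. Screening was duplicate at 25 uM, with concurrent positive and negative controls and confirmatory concentration series for actives.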
structure (smiles),measurement,setting,value
O=C(O)[C@H](O)[C@@H](O)C(=O)O,AC50,[1],inconclusive: 25 µM
CC(C)(C#N)c1cc(Cn2cncn2)cc(C(C)(C)C#N)c1,outcome,[2],inactive
same,outcome,[3],inactive
same,AC50,[4],inconclusive: 0.287 µM
CCCCCCCC/C=C\CCCCCCCC(=O)OCC(O)CO (configuration not stated),AC50,[2],active: 8.56 µM
same,AC50,[3],active: 70.9 µM
same,AC50,[4],inconclusive: 8.5 µM
FC(F)(F)C(F)(F)C(F)(F)C(F)(F)C(F)(F)C(F)(F)CCI,outcome,[2],inactive
same,AC50,[3],inconclusive: 25 µM
same,AC50,[4],inconclusive: 25 µM
COCCOCCOCCOCCOCCO,AC50,[5],inconclusive: 25 µM
COC(C)CCO (configuration not stated),outcome,[1],inactive
C#CCOC(=O)[C@@H](C)Oc1ccc(Oc2ncc(Cl)cc2F)cc1,AC50,[6],inconclusive: 0.476 µM
same,outcome,[1],inactive
NC(=O)c1cccnc1,AC50,[2],inconclusive: 26.2 µM
same,outcome,[4],inactive
Cn1c(=O)cc(Oc2ccc(F)cc2F)c2cnc(NCC(C)(C)O)nc21,AC50,[1],active: 32.4 µM
CO[C@@H]1COCC[C@@H]1N[C@@H]1CC[C@@](C(=O)N2CCc3ncc(C(F)(F)F)cc3C2)(C(C)C)C1,AC50,[1],active: 15.8 µM
O=C(NS(=O)(=O)/C=C/c1cccs1)c1ccc(F)cc1Br,AC50,[7],inconclusive: 25 µM
same,outcome,[3],inactive
Cc1nc(-c2ccc3c(c2)CCN(CCC2CCC(NC(=O)/C=C/c4ccc(F)cc4)CC2)CC3)no1 (configuration not stated),AC50,[1],inconclusive: 11.6 µM
same,AC50,[8],active: 0.068 µM
same,AC50,[9],inconclusive: 3.12 µM
same,AC50,[3],inconclusive: 23.2 µM
NNC(=O)c1ccncc1,AC50,[1],inconclusive: 0.621 µM
Cn1cc[nH]c1=S,AC50,[1],inconclusive: 4.96 µM
same,AC50,[9],inconclusive: 25 µM

# Rewritten with tabs: entries from further up.
structure (smiles)	measurement	setting	value
NNC(=O)c1ccncc1	AC50	[1]	inconclusive: 0.621 µM
Cn1cc[nH]c1=S	AC50	[1]	inconclusive: 4.96 µM
